The target of test [1] is C-terminally LgBiT-fused Lc-GPR25 (coelacanth (Latimeria chalumnae)) (UniProt H3AQL3). The test can be described thus: split reporter.
Test [2] concerns the target N-terminally sLgBiT-fused Lc-GPR25 (coelacanth (Latimeria chalumnae)) (UniProt H3AQL3). The test can be described thus: split reporter.

Two molecules from article doi:10.1101/2025.06.10.658772 (bioRxiv, 2025) can be followed below.

These are yes or no findings as the source states them, for the method shown. Binding seen in cells or lysates may run through a third protein. A result given as binding can be weak or reduced; the word gives no strength. For some assays here: Sequences can lack the tags named with a protein.

On to “N-terminally SmBiT-fused human β-arrestin 2 (ARRB2) (from UniProt P32121 1-409)”, for which the binding entry in test [1] is “binds”.

B1: N-terminally 6×His-tagged wild-type (WT) human CXCL17 (ligand)
chain: SSLNPGVARGHRDRGQASRRWLQEGGQECECKDWFLRAPRRKFMTVSGLPKKQCPCDHFKGNVKKTRHQRHHRKPNKHSRACQQFLKQCQLRSFALPL
Regarding B1, the binding entry in test [2] was “binds”.
